Laboratory results as given in paper PMC10820798.
These are yes or no findings as the source states them, for the method shown. In cells and extracts the contact can be indirect. Here binding means that the protein was enriched with, or labelled near, the bait; the list need not be complete. For part of these data: A no says only that the protein was not detected with the bait. For part of these data: Tags and fused reporters may be left off the sequences shown. One block for each molecule: values may come before it.

Sequences of proteins named here, by UniProt entry; tags and fusion partners are left off.
UniProt Q8TCU4: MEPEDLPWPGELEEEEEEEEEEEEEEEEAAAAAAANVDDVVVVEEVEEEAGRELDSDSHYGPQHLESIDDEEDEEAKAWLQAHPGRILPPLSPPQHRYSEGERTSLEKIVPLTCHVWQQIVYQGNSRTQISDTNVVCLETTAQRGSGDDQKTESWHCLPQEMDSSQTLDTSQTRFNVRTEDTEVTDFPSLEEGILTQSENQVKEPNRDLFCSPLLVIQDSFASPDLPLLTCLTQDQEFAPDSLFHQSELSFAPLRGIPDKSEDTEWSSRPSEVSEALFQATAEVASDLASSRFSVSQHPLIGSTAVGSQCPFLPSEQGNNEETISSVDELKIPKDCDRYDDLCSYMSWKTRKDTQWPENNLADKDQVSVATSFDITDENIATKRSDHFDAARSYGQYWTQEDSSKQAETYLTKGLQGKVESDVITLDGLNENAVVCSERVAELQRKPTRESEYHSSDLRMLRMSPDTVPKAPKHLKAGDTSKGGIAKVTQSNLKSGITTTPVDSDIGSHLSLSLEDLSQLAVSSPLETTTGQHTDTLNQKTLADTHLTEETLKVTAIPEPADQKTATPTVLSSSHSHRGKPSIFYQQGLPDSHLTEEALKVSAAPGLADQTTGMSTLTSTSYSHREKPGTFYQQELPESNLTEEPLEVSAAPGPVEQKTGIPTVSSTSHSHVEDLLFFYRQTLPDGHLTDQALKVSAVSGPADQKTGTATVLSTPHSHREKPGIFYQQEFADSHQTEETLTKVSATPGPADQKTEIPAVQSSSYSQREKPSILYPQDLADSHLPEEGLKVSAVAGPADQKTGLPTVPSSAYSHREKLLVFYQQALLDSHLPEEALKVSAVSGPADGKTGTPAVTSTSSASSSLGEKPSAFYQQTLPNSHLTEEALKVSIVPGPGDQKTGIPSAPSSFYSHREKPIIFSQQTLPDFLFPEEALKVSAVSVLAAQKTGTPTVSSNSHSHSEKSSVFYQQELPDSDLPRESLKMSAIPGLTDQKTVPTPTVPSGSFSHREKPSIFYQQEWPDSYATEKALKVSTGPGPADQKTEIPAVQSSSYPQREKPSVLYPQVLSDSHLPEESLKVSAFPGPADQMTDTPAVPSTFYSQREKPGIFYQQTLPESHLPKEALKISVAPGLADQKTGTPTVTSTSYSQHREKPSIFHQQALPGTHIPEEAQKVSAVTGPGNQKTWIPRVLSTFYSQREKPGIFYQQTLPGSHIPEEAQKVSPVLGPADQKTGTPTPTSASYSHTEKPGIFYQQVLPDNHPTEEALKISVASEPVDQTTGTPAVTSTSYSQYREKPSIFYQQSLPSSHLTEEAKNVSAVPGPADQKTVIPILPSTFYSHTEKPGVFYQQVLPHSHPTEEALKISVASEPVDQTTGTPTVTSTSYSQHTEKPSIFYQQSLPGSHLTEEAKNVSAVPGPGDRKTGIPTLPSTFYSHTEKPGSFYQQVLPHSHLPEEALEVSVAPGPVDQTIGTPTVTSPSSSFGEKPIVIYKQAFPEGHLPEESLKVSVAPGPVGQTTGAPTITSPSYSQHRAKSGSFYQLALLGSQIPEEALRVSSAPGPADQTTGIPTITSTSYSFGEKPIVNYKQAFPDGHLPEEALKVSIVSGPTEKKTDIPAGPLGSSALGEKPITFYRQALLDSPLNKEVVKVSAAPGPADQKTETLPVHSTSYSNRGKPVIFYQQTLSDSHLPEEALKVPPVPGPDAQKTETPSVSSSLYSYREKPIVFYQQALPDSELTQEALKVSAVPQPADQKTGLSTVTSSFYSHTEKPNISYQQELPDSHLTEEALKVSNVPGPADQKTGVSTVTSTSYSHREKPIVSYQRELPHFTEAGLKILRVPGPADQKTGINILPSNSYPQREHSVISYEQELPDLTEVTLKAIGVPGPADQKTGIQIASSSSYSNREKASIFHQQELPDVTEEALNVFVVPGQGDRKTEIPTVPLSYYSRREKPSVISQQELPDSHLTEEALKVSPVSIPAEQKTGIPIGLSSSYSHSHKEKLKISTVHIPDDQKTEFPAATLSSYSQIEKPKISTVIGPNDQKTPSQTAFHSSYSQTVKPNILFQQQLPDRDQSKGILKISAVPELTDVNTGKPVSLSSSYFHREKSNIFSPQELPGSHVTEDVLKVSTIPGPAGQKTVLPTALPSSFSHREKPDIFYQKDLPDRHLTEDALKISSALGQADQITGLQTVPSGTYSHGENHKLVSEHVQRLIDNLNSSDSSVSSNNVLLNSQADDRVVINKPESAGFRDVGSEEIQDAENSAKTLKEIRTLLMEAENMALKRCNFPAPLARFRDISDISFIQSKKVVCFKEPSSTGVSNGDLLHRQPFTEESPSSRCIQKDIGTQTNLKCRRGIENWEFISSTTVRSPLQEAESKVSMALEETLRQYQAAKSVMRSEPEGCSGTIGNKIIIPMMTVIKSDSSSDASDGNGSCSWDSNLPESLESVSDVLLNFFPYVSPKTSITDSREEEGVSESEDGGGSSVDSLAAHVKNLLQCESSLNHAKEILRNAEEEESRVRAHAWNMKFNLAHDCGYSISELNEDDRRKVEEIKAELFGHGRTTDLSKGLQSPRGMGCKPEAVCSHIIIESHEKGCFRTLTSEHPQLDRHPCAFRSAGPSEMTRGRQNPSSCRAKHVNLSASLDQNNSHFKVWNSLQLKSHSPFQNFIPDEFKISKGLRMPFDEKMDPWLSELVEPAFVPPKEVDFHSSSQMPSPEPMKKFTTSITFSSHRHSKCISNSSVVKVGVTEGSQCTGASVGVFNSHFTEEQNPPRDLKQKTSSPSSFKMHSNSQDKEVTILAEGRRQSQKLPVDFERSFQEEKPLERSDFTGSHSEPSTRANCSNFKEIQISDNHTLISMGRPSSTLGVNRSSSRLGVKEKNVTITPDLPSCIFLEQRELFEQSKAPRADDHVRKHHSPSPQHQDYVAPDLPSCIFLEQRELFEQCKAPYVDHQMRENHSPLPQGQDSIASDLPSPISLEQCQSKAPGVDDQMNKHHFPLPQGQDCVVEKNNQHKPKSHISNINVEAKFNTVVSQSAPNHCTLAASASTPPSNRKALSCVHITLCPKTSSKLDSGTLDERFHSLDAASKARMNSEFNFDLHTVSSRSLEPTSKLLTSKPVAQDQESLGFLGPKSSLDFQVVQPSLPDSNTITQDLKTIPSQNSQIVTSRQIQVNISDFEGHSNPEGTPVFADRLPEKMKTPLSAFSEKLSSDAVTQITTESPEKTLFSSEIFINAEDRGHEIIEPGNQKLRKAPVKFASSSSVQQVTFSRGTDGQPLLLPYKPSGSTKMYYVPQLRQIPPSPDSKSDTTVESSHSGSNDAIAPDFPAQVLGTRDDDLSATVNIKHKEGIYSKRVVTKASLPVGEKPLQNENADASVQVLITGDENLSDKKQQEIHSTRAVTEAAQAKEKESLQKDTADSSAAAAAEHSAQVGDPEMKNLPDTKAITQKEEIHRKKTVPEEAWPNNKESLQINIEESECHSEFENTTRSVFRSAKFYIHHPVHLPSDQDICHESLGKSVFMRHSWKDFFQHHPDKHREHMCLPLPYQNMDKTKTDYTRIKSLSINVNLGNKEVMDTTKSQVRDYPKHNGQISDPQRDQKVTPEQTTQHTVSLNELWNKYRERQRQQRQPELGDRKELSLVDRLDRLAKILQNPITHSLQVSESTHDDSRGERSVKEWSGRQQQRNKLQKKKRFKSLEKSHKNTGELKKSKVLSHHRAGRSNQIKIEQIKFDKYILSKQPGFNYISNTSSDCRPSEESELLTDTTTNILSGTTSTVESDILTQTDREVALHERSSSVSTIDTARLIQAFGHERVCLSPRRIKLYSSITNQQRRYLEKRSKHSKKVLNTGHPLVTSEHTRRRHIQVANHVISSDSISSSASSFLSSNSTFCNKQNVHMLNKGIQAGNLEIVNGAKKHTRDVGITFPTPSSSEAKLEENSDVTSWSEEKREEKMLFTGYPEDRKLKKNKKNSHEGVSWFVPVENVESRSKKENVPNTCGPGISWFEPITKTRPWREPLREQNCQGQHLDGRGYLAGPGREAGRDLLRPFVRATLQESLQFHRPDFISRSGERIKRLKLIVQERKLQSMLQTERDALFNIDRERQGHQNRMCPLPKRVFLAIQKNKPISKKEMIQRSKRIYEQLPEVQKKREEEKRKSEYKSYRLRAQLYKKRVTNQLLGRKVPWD

Key:
[1] = molecular target: T1, N-terminal Strep/FLAG-tagged CEP70 full-length (NSF-CEP70) (human) (UniProt Q8NHQ1); test: affinity purification with mass spectrometry; FLAG agarose on lysates (0.5% NP40) of HEK293T transfected with NSF-CEP70 full-length, CC1-2 or TPR-CT; 1 h at 4 °C; on-bead digest; NSF-RAF1 as control; six replicates; label-free quantification, Tier 1/Tier 2 statistics
T1 sequence: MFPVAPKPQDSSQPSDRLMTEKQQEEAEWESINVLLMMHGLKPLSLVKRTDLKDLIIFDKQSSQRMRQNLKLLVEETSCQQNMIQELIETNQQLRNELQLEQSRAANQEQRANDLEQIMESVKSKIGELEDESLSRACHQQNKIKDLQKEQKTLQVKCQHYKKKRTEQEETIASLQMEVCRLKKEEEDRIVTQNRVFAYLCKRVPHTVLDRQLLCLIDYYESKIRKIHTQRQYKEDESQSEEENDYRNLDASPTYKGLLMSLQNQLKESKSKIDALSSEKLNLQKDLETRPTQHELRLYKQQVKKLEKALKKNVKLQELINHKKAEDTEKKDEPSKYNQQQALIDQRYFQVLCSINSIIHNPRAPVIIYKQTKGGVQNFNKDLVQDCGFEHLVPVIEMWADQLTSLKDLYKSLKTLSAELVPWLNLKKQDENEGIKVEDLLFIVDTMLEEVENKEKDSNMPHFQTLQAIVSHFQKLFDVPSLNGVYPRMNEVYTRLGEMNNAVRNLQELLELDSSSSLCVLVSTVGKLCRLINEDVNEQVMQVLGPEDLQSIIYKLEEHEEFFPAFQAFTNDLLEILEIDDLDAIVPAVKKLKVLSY

[2] = molecular target: T2, NSF-CEP70 TPR-CT fragment (327-597 aa) (human) (UniProt Q8NHQ1); test: as above
T2 sequence: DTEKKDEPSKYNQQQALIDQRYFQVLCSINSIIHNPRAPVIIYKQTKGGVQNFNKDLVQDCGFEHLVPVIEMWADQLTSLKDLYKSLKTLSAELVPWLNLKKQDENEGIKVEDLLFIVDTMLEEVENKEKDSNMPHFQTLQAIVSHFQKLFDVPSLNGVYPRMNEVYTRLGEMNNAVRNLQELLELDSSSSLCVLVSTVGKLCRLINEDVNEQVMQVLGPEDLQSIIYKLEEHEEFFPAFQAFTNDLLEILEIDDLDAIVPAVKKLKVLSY

[3] = molecular target: T3, NSF-CEP70 CC1-2 fragment (75-326 aa) (human) (UniProt Q8NHQ1); test: as above
T3 sequence: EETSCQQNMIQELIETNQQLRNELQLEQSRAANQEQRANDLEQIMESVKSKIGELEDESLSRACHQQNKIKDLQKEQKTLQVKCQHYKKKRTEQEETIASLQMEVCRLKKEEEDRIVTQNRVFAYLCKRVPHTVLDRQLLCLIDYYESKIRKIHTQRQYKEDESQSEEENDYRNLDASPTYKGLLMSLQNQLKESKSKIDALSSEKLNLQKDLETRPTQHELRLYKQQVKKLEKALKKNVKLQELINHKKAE

[4] = molecular target: endogenously sfGFP-tagged ALMS1 (ALMS1-sfGFP) (human (endogenous in HEK293T)) (UniProt Q8TCU4); test: affinity purification with mass spectrometry; GFP-Trap agarose on lysates (0.5% NP40) of three HEK293T single clones with endogenous ALMS1-sfGFP, starved overnight; 1 h at 4 °C; untagged HEK293T as control; six replicates; label-free quantification, Tier 1/Tier 2 statistics

Molecule: ALMS1, endogenous (untagged) (from UniProt Q8TCU4 1-4168)
binding [1]: binds | binding [2]: binds | binding [3]: no binding

binding [4]: binds
B1: ZC3H18 (protein, UniProt Q86VM9 1-953)
chain: MDVAESPERDPHSPEDEEQPQGLSDDDILRDSGSDQDLDGAGVRASDLEDEESAARGPSQEEEDNHSDEEDRASEPKSQDQDSEVNELSRGPTSSPCEEEGDEGEEDRTSDLRDEASSVTRELDEHELDYDEEVPEEPAPAVQEDEAEKAGAEDDEEKGEGTPREEGKAGVQSVGEKESLEAAKEKKKEDDDGEIDDGEIDDDDLEEGEVKDPSDRKVRPRPTCRFFMKGNCTWGMNCRFIHPGVNDKGNYSLITKADPFPPNGAPPLGPHPLMPANPWGGPVVDEILPPPPPEPPTESAWERGLRHAKEVLKKATIRKEQEPDFEEKRFTVTIGEDEREFDKENEVFRDWNSRIPRDVRDTVLEPYADPYYDYEIERFWRGGQYENFRVQYTETEPYHNYRERERERERENRQRERERERERDRERERRQRERERERERERDKERQRRKEEWERERAKRDEKDRQHRDRDREKEREKEKGKPKPRSPQPPSRQAEPPKKEAATTGPQVKRADEWKDPWRRSKSPKKKLGVSVSPSRARRRRKTSASSASASNSSRSSSRSSSYSGSGSSRSRSRSSSYSSYSSRSSRHSSFSGSRSRSRSFSSSPSPSPTPSPHRPSIRTKGEPAPPPGKAGEKSVKKPAPPPAPPQATKTTAPVPEPTKPGDPREARRKERPARTPPRRRTLSGSGSGSGSSYSGSSSRSRSLSVSSVSSVSSATSSSSSAHSVDSEDMYADLASPVSSASSRSPAPAQTRKEKGKSKKEDGVKEEKRKRDSSTQPPKSAKPPAGGKSSQQPSTPQQAPPGQPQQGTFVAHKEIKLTLLNKAADKGSRKRYEPSDKDRQSPPPAKRPNTSPDRGSRDRKSGGRLGSPKPERQRGQNSKAPAAPADRKRQLSPQSKSSSKVTSVPGKASDPGAASTKSGKASTLSRREELLKQLKAVEDAIARKRAKIPGKA
binding [1]: binds

binding [4]: binds
B2: HDAC10 (protein, UniProt Q969S8 1-669)
chain: MGTALVYHEDMTATRLLWDDPECEIERPERLTAALDRLRQRGLEQRCLRLSAREASEEELGLVHSPEYVSLVRETQVLGKEELQALSGQFDAIYFHPSTFHCARLAAGAGLQLVDAVLTGAVQNGLALVRPPGHHGQRAAANGFCVFNNVAIAAAHAKQKHGLHRILVVDWDVHHGQGIQYLFEDDPSVLYFSWHRYEHGRFWPFLRESDADAVGRGQGLGFTVNLPWNQVGMGNADYVAAFLHLLLPLAFEFDPELVLVSAGFDSAIGDPEGQMQATPECFAHLTQLLQVLAGGRVCAVLEGGYHLESLAESVCMTVQTLLGDPAPPLSGPMAPCQSALESIQSARAAQAPHWKSLQQQDVTAVPMSPSSHSPEGRPPPLLPGGPVCKAAASAPSSLLDQPCLCPAPSVRTAVALTTPDITLVLPPDVIQQEASALREETEAWARPHESLAREEALTALGKLLYLLDGMLDGQVNSGIAATPASAAAATLDVAVRRGLSHGAQRLLCVALGQLDRPPDLAHDGRSLWLNIRGKEAAALSMFHVSTPLPVMTGGFLSCILGLVLPLAYGFQPDLVLVALGPGHGLQGPHAALLAAMLRGLAGGRVLALLEENSTPQLAGILARVLNGEAPPSLGPSSVASPEDVQALMYLRGQLEPQWKMLQCHPHLVA
binding [1]: no binding

binding [4]: binds
B3: TCEB3 (protein, UniProt Q14241 1-772)
chain: MAAESALQVVEKLQARLAANPDPKKLLKYLKKLSTLPITVDILAETGVGKTVNSLRKHEHVGSFARDLVAQWKKLVPVERNAEPDEQDFEKSNSRKRPRDALQKEEEMEGDYQETWKATGSRSYSPDHRQKKHRKLSELERPHKVSHGHERRDERKRCHRMSPTYSSDPESSDYGHVQSPPSCTSPHQMYVDHYRSLEEDQEPIVSHQKPGKGHSNAFQDRLGASQERHLGEPHGKGVVSQNKEHKSSHKDKRPVDAKSDEKASVVSREKSHKALSKEENRRPPSGDNAREKPPSSGVKKEKDREGSSLKKKCLPPSEAASDNHLKKPKHRDPEKAKLDKSKQGLDSFDTGKGAGDLLPKVKEKGSNNLKTPEGKVKTNLDRKSLGSLPKVEETDMEDEFEQPTMSFESYLSYDQPRKKKKKIVKTSATALGDKGLKKNDSKSTGKNLDSVQKLPKVNKTKSEKPAGADLAKLRKVPDVLPVLPDLPLPAIQANYRPLPSLELISSFQPKRKAFSSPQEEEEAGFTGRRMNSKMQVYSGSKCAYLPKMMTLHQQCIRVLKNNIDSIFEVGGVPYSVLEPVLERCTPDQLYRIEEYNHVLIEETDQLWKVHCHRDFKEERPEEYESWREMYLRLQDAREQRLRVLTKNIQFAHANKPKGRQAKMAFVNSVAKPPRDVRRRQEKFGTGGAAVPEKIKIKPAPYPMGSSHASASSISFNPSPEEPAYDGPSTSSAHLAPVVSSTVSYDPRKPTVKKIAPMMAKTIKAFKNRFSRR
binding [1]: binds
